Values of other authors in patent US20250257034A1, “INDOLE DERIVATIVES AS SEROTONERGIC AGENTS USEFUL FOR THE TREATMENT OF DISORDERS RELATED THERETO” (priority 2023, published 2025).
Where two headings read alike, the source gives them in different places. For at least one compound, name, drawing or mass did not settle the structure.

System: tobacco use disorder
Conditions: cited from earlier work

**Q.** With `CN(C)CCc1c[nH]c2cccc(OP(=O)(O)O)c12` [psilocybin, 4-phosphoryloxy-N,N-dimethyltrypatmine] as the compound, how does the abstinence rate (12 months follow-up) read?
**A.** The abstinence rate was 67%.

**Q.** What about the abstinence rate (six months follow-up) of the same compound?
**A.** Its abstinence rate is 80%.
